Assay results: article PMC3741120, “A Sperm–Plasma β-N-Acetyl-D-Hexosaminidase Interacting with a Chitinolytic β-N-Acetyl-D-Hexosaminidase in Insect Molting Fluid” (PLoS ONE, 2013)
Results are given in words; binding and its absence hold for the method and conditions named. Binding seen in cells or lysates may run through a third protein. A result given as binding can be weak or reduced; the word gives no strength. Sequences can lack the tags named with a protein.

Target: T1, OfHex1-His (β-N-acetyl-D-hexosaminidase Hex1 from Ostrinia furnacalis) (Ostrinia furnacalis) (UniProt Q06GJ0)
T1 sequence: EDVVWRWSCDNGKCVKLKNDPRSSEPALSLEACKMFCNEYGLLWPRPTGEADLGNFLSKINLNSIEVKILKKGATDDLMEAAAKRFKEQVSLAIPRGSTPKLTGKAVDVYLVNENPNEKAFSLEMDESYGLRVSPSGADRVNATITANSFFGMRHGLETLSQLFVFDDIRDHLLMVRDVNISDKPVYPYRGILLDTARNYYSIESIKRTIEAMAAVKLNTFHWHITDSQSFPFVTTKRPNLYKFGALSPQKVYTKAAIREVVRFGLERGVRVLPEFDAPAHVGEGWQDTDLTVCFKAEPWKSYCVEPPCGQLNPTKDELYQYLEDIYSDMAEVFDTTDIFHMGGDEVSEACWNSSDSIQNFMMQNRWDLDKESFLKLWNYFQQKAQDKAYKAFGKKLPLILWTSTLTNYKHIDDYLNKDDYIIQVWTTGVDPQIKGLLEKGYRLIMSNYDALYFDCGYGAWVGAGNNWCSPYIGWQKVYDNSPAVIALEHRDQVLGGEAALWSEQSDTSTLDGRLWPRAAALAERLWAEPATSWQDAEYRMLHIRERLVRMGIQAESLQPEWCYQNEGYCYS
Assay: pull-down; purified OfHex1-His in binding buffer (20 mM sodium phosphate, 0.5 M NaCl, pH 7.4) incubated 4 h with B. mori molting fluid, then held on Ni-NTA beads 1 h; washed with binding buffer and with 75 mM imidazole, eluted with 250 mM imidazole; Hex3 detected by western blot with Hex3 antibody; only the target purified

binding: binds
Substance: BmHex3 (β-N-acetyl-D-hexosaminidase Hex3 from Bombyx mori) (enzyme)
